Record: PubChem BioAssay AID1224829 (NIAID, 2016)
Shown is one part, drawn at random, of about 3,800 deposited reagents. 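Calls cover raised and lowered translocation; gene median uses one vendor's three siRNAs; qiagen siRNAs acted more weakly than ambion siRNAs.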 Reagents against one gene are numbered here. No sequences are given here.

Purpose: 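Secondary check of hits that alter LPS-induced p65 translocation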 (follow-up of hits)
Cell system: mouse RAW264.7 G9 macrophage reporter cells
Reagent: single siRNA against mouse genes, 100 nM
Time to read-out: 2 days of siRNA knock-down, then 40 min of LPS before fixing
Challenge: LPS (Salmonella minnesota R595) at 10 ng/ml
Measured: 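Imaging of GFP-p65 after 40 min of LPS; nuclear over perinuclear ring intensity ratio, scaled to plate median and non-targeting control wells, given as z-score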
Scale: p65 translocation z-score and gene median z-score, per vendor: higher = more nuclear NF-kappaB p65 after LPS
Hit rule: 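Active means the replicate-mean z-score lies beyond plus or minus 2, in either direction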
Calls: active = changed p65 translocation (either direction); inactive = no clear change

p65 translocation z-score, replicate mean	p65 translocation z-score, replicate 1	p65 translocation z-score, replicate 2	gene median z-score, per vendor	Outcome	gene knocked down	reagent	siRNA vendor or control pool
-0.238	-0.972	0.496	-3.18	inactive	A430093F15Rik (GeneID 403202)	1	ambion single siRNA
-7.32	-9.25	-5.39	-3.18	active	A430093F15Rik (GeneID 403202)	2	ambion single siRNA
-1.76	2.63	-6.15	-3.18	inactive	A430093F15Rik (GeneID 403202)	3	ambion single siRNA
-0.253	0.00792	-0.513	-0.433	inactive	A430093F15Rik (GeneID 403202)	4	qiagen single siRNA
-0.734	-1.12	-0.352	-0.433	inactive	A430093F15Rik (GeneID 403202)	5	qiagen single siRNA
-0.724	-1.64	0.189	-0.433	inactive	A430093F15Rik (GeneID 403202)	6	qiagen single siRNA
-1.43	-1.6	-1.26	-2.13	inactive	Rab24 (GeneID 19336)	1	ambion single siRNA
-2.24	-1.34	-3.15	-2.13	active	Rab24 (GeneID 19336)	2	ambion single siRNA
-2.99	-2.65	-3.33	-2.13	active	Rab24 (GeneID 19336)	3	ambion single siRNA
3.21	2.8	3.62	-0.717	active	Rab24 (GeneID 19336)	4	qiagen single siRNA
-1.97	-2.87	-1.06	-0.717	inactive	Rab24 (GeneID 19336)	5	qiagen single siRNA
-2.17	-0.369	-3.98	-0.717	active	Rab24 (GeneID 19336)	6	qiagen single siRNA
-1.6	-1.91	-1.29	-3.51	inactive	Rnf126 (GeneID 70294)	1	ambion single siRNA
-5.08	-6.21	-3.95	-3.51	active	Rnf126 (GeneID 70294)	2	ambion single siRNA
-5.25	-7.43	-3.07	-3.51	active	Rnf126 (GeneID 70294)	3	ambion single siRNA
2.01	2.32	1.71	0.926	active	Rnf126 (GeneID 70294)	4	qiagen single siRNA
-2.55	-2.22	-2.88	0.926	active	Rnf126 (GeneID 70294)	5	qiagen single siRNA
0.926	0.926		0.926	inactive	Rnf126 (GeneID 70294)	6	qiagen single siRNA
1.73	1.79	1.67	-1.09	inactive	Nfkbid (GeneID 243910)	1	ambion single siRNA
-1.22	-0.769	-1.67	-1.09	inactive	Nfkbid (GeneID 243910)	2	ambion single siRNA
-1.46	-1.42	-1.5	-1.09	inactive	Nfkbid (GeneID 243910)	3	ambion single siRNA
0.615	0.342	0.889	0.803	inactive	Nfkbid (GeneID 243910)	4	qiagen single siRNA
-0.404	-1.6	0.794	0.803	inactive	Nfkbid (GeneID 243910)	5	qiagen single siRNA
1.23	0.812	1.64	0.803	inactive	Nfkbid (GeneID 243910)	6	qiagen single siRNA
			-2.24	inactive	Grap (GeneID 71520)	1	ambion single siRNA
-3.85	-3.85		-2.24	active	Grap (GeneID 71520)	2	ambion single siRNA
-2.04	-2.24	-1.84	-2.24	active	Grap (GeneID 71520)	3	ambion single siRNA
1.66	0.418	2.91	-0.0528	inactive	Grap (GeneID 71520)	4	qiagen single siRNA
0.0301	0.583	-0.523	-0.0528	inactive	Grap (GeneID 71520)	5	qiagen single siRNA
-2.01	-2.56	-1.46	-0.0528	active	Grap (GeneID 71520)	6	qiagen single siRNA
-1.96	-2.28	-1.64	-3.68	inactive	Ankmy2 (GeneID 217473)	1	ambion single siRNA
-4.78	-4.99	-4.57	-3.68	active	Ankmy2 (GeneID 217473)	2	ambion single siRNA
-3.68	-3.68		-3.68	active	Ankmy2 (GeneID 217473)	3	ambion single siRNA
1.85	0.926	2.77	1.47	inactive	Ankmy2 (GeneID 217473)	4	qiagen single siRNA
2.75	2	3.5	1.47	active	Ankmy2 (GeneID 217473)	5	qiagen single siRNA
-2.48	-2.32	-2.64	1.47	active	Ankmy2 (GeneID 217473)	6	qiagen single siRNA
-7.61	-9.11	-6.12	-2.45	active	Gcm2 (GeneID 107889)	1	ambion single siRNA
-2.23	-2.29	-2.17	-2.45	active	Gcm2 (GeneID 107889)	2	ambion single siRNA
-1.97	-2.62	-1.31	-2.45	inactive	Gcm2 (GeneID 107889)	3	ambion single siRNA
3.47	3.81	3.12	1.29	active	Gcm2 (GeneID 107889)	4	qiagen single siRNA
1.29	0.832	1.75	1.29	inactive	Gcm2 (GeneID 107889)	5	qiagen single siRNA
-1.7	-1.93	-1.47	1.29	inactive	Gcm2 (GeneID 107889)	6	qiagen single siRNA
0.204	-0.494	0.902	-2.32	inactive	Fam53a (GeneID 74504)	1	ambion single siRNA
-4.13	-4.13		-2.32	active	Fam53a (GeneID 74504)	2	ambion single siRNA
-2.82	-2.32	-3.31	-2.32	active	Fam53a (GeneID 74504)	3	ambion single siRNA
2.31	2.67	1.95	-1.03	active	Fam53a (GeneID 74504)	4	qiagen single siRNA
-2.69	-3.06	-2.32	-1.03	active	Fam53a (GeneID 74504)	5	qiagen single siRNA
-1.38	-3.02	0.262	-1.03	inactive	Fam53a (GeneID 74504)	6	qiagen single siRNA
-0.396	-0.885	0.0935	-0.707	inactive	Rpsa (GeneID 16785)	1	ambion single siRNA
0.739	2.01	-0.53	-0.707	inactive	Rpsa (GeneID 16785)	2	ambion single siRNA
-1.54	-2.14	-0.933	-0.707	inactive	Rpsa (GeneID 16785)	3	ambion single siRNA
2	2		-0.248	active	Rpsa (GeneID 16785)	4	qiagen single siRNA
-0.248	-1.38	0.884	-0.248	inactive	Rpsa (GeneID 16785)	5	qiagen single siRNA
-3.45	-3.45		-0.248	active	Rpsa (GeneID 16785)	6	qiagen single siRNA
-1.29	-0.0261	-2.55	-1.43	inactive	5830411J07Rik (GeneID 74742)	1	qiagen single siRNA
-0.237	-0.153	-0.321	-1.43	inactive	5830411J07Rik (GeneID 74742)	2	qiagen single siRNA
-4.63	-4.58	-4.68	-1.43	active	5830411J07Rik (GeneID 74742)	3	qiagen single siRNA
-1.24	-0.496	-1.98	-2.03	inactive	Trip12 (GeneID 14897)	1	ambion single siRNA
-3.59	-2.61	-4.57	-2.03	active	Trip12 (GeneID 14897)	2	ambion single siRNA
-1.89	-1.71	-2.08	-2.03	inactive	Trip12 (GeneID 14897)	3	ambion single siRNA
-0.537	0.559	-1.63	2.03	inactive	Trip12 (GeneID 14897)	4	qiagen single siRNA
4	4.61	3.38	2.03	active	Trip12 (GeneID 14897)	5	qiagen single siRNA
2.03	1.64	2.42	2.03	active	Trip12 (GeneID 14897)	6	qiagen single siRNA
2.49	2.18	2.8	-0.615	active	Trim67 (GeneID 330863)	1	ambion single siRNA
-0.615	-0.202	-1.03	-0.615	inactive	Trim67 (GeneID 330863)	2	ambion single siRNA
-5.68	-5.69	-5.67	-0.615	active	Trim67 (GeneID 330863)	3	ambion single siRNA
0.27	-0.154	0.694	-0.603	inactive	Trim67 (GeneID 330863)	4	qiagen single siRNA
-3.05	-1.76	-4.33	-0.603	active	Trim67 (GeneID 330863)	5	qiagen single siRNA
-0.567	-1.05	-0.0819	-0.603	inactive	Trim67 (GeneID 330863)	6	qiagen single siRNA

Look-ups from the entries so far:
For “p65 translocation z-score, replicate 2”, A430093F15Rik (GeneID 403202) #6, siRNA vendor or control pool qiagen single siRNA shows 0.189
Value of Rnf126 (GeneID 70294) #2, siRNA vendor or control pool ambion single siRNA in “p65 translocation z-score, replicate 1”: -6.21
Result of Nfkbid (GeneID 243910) #3, siRNA vendor or control pool ambion single siRNA in “p65 translocation z-score, replicate mean”: -1.46
Entry of Nfkbid (GeneID 243910) #4, siRNA vendor or control pool qiagen single siRNA in “p65 translocation z-score, replicate 2”: 0.889
Under “p65 translocation z-score, replicate 1”, Grap (GeneID 71520) #4, siRNA vendor or control pool qiagen single siRNA shows 0.418
For “Outcome”, Trip12 (GeneID 14897) #6, siRNA vendor or control pool qiagen single siRNA has active
